Drawing on paper PMC12631847, this text covers binding for one molecule.

Amino acid sequences for entries named in this document (tags omitted).
UniProt Q9H0U4: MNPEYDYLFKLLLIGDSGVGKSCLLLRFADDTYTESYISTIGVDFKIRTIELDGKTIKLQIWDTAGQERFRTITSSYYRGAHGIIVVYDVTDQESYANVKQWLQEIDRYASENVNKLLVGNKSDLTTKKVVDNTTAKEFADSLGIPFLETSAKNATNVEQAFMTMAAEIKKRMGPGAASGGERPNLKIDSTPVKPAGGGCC

For this assay, the target named is GST-RAB1B (human) (UniProt Q9H0U4). Kind of assay: pull-down; GST-RAB1B (10 µg) on magnetic GSH beads loaded with 1 mM GTP-γ-S; 500 µg BT549 lysate, 1 h 4 °C; anti-HA immunoblot; only the target purified.

No constants are given. Whether binding was seen depends on the method and setting. In cells and extracts the contact can be indirect. Some binding calls cover weakened binding; strength is not graded here. Tags and fused reporters may be left off the sequences shown.

B1: HA-TBC1D22B (protein, UniProt Q9NU19 1-505)
chain: MAAENSKQFWKRSAKLPGSIQPVYGAQHPPLDPRLTKNFIKERSKVNTVPLKNKKASSFHEFARNTSDAWDIGDDEEEDFSSPSFQTLNSKVALATAAQVLENHSKLRVKPERSQSTTSDVPANYKVIKSSSDAQLSRNSSDTCLRNPLHKQQSLPLRPIIPLVARISDQNASGAPPMTVREKTRLEKFRQLLSSQNTDLDELRKCSWPGVPREVRPITWRLLSGYLPANTERRKLTLQRKREEYFGFIEQYYDSRNEEHHQDTYRQIHIDIPRTNPLIPLFQQPLVQEIFERILFIWAIRHPASGYVQGINDLVTPFFVVFLSEYVEEDVENFDVTNLSQDMLRSIEADSFWCMSKLLDGIQDNYTFAQPGIQKKVKALEELVSRIDEQVHNHFRRYEVEYLQFAFRWMNNLLMRELPLRCTIRLWDTYQSEPEGFSHFHLYVCAAFLIKWRKEILDEEDFQGLLMLLQNLPTIHWGNEEIGLLLAEAYRLKYMFADAPNHYRR
Take B1: the binding result was “binds”.
